Experimental data taken from patent US12161653B2, “Treatment of submental fat” (Allergan Sales, LLC, priority 2011, dated 2024).

Tested on: submental fat (SMF)
Experiment: Example 3 phase II placebo-controlled study (CR-SMFRS, PR-SMFRS, PR-SMFIS, MRI, other scales)
Assay type: in vivo, human
Procedure: A clinical study was conducted to evaluate the effectiveness of various doses of sodium deoxycholate in removing undesired submental fat (SMF) deposits. This clinical study was multicenter, randomized, double-blind, placebo-controlled study of sodium deoxycholate injection (“SDI” or alternatively “ATX-101”) versus placebo for the reduction of localized subcutaneous fat in the submental area (SMF) using magnetic resonance imaging (MRI) and a battery of clinician- and subject-reported measurements.
Study Design: FIG. 2 depicts the study Design and Treatment Schema associated with this procedure. […]
To measure changes in SMF volume and thickness, MRI acquisitions were repeated prior to each treatment session and post-treatment (4 and 12 weeks after the last treatment cycle). Before subjects completed each MRI visit, the MRI images were evaluated for acceptability. […]
Evaluation of Efficacy: The effects of 5 mg/mL SDI and 10 mg/mL SDI transcutaneous injections in the submental area were evaluated relative to placebo by measuring the following: (1) the reduction of fat using Clinician-Reported Submental Fat Rating Scale (CR-SMFRS), Patient-Reported Submental Fat Rating Scale (PR-SMFRS), and Patient-Reported Submental Fat Impact Scale (PR-SMFIS); (2) the volume of SMF using MRI; and (3) the thickness of SMF using MM. […]

SMILES: C[C@H](CCC(=O)[O-])[C@H]1CC[C@H]2[C@@H]3CC[C@@H]4C[C@H](O)CC[C@]4(C)[C@H]3C[C@H](O)[C@]12C.[Na+] [sodium deoxycholate]
- body weight (during the course of the treatments (FIG. 19)): did not undergo obvious changes
- body mass index (BMI) (patients receiving the treatments (FIG. 17)): did not have marked changes
